Reference: the supplement of paper PMC8047044
Counter-ions that a name gives are not always drawn. Some of the results follow. Most values come without repeats; read them as rough.

Tested on: Neuro-2a
Experiment: neurite formation score, plate-normalized to DMSO control mean 5.04 (score (0-8 scale)); higher = more or longer neurites
Details: 10 µM

SMILES	neurite formation score
Cc1c[nH]c(/C=C2\C(=O)Nc3ccccc32)c1CCC(=O)O	4.41
O=c1cc(CN2CCOCC2)occ1OCCCCCSc1ccnc2cc(C(F)(F)F)ccc12	4.52
CCn1c(=O)c(-c2ccc(-c3cncs3)cc2Cl)cc2cnc(Nc3ccc(N4CCN(C)CC4)cc3)nc21	4.43
O=c1cc(N2CCOCC2)oc2c(-c3cccc4c3sc3ccccc34)cccc12	1.19
Nc1ccc(C(=O)Nc2cccc(-c3nc(N4CCOCC4)c4oc5ncccc5c4n3)c2)cn1	1.19
O=C(Cc1ccc(-c2ccc(OCCN3CCOCC3)cc2)cn1)NCc1ccccc1	-0.243
C#Cc1cccc(Nc2ncnc3cc(OC)c(OCCCCCCC(=O)NO)cc23)c1	0.077
O=S(=O)(c1cccc2cnccc12)N1CCCNCC1 [Fasudil (HA-1077) HCl]	5.52
CCN1CCN(c2ccc(Nc3cc(N(C)C(=O)Nc4c(Cl)c(OC)cc(OC)c4Cl)ncn3)cc2)CC1	4.42
Cc1ccc(S(=O)(=O)Nc2nc3ccccc3nc2Nc2ccc3nsnc3c2)cc1	2.09
CCn1cc(-c2ccnc3[nH]c(-c4cccc(CN(C)C)c4)cc23)c(-c2ccc(NC(=O)N(C)C)cc2)n1	3.74
Cc1nc(N)sc1-c1ccnc(Nc2ccc(N3CCOCC3)cc2)n1	4.08
CN(C)CCSSCCNC(=O)C1CCN(C(=O)CSc2ccc(Cl)cc2)CC1	1.43
Cn1cc(-c2ccc3ncc(Cc4ccc5ncccc5c4)n3n2)cn1	3.43
CN1CCN(c2ccc3nc(-c4c(N)c5c(F)cccc5[nH]c4=O)[nH]c3c2)CC1 [Dovitinib Dilactic acid]	1.43
O=C(/C=C/c1ccc(O)c(O)c1)c1ccc(O)cc1O [Butein]	3.54
CNC(=O)Nc1ccc(-c2nc(N3CC4CCC(C3)O4)c3cnn(C4CCC5(CC4)OCCO5)c3n2)cc1	4.86
CCc1cncnc1N1CCN(Cc2nc3ccc(C(F)(F)F)cc3[nH]2)CC1	3.86
CC(C)CC(=O)Nc1n[nH]c2c1CN(C(=O)C1CCN(C)CC1)C2(C)C	4.19
Nc1ncnc2c1c(-c1cnc3[nH]ccc3c1)nn2C1CCCC1	3.86

SMILES	neurite formation score
COc1ccc(-c2cnc3c(-c4cccc5ncccc45)cnn3c2)cc1	3.52
O=C(O)c1ccc(Nc2ncc3c(n2)-c2ccc(Cl)cc2C(c2c(F)cccc2F)=NC3)cc1	0.757
CC(C)(C)c1cc(NC(=O)Nc2ccc(-c3cn4c(n3)sc3cc(OCCN5CCOCC5)ccc34)cc2)no1 [Quizartinib (AC220)]	4.19
CC(C)(CCCCCC(O)CCCCCC(C)(C)C(=O)O)C(=O)O	4.42
O=S(=O)(NCCNC/C=C/c1ccc(Br)cc1)c1cccc2cnccc12	5.52
CN1CCN(C2CCN(C(=O)Nc3cc(Oc4ccc(NC(=O)C5(C(=O)Nc6ccc(F)cc6)CC5)c(F)c4)ccn3)CC2)CC1 [Golvatinib (E7050)]	2.09
N#Cc1cccc(-c2c[nH]c3ncnc(N4CCOCC4)c23)c1	5.86
CO[C@@H](C(=O)N1Cc2[nH]nc(NC(=O)c3ccc(N4CCN(C)CC4)cc3)c2C1)c1ccccc1	0.41
O=C1NC(=O)[C@@H](c2cn3c4c(cccc24)CCC3)[C@@H]1c1c[nH]c2ccccc12 [Tivantinib (ARQ 197)]	0.853
COc1ccc(-c2cc3c(C)nc(N)nc3n([C@H]3CC[C@H](OCCO)CC3)c2=O)cn1	2.43
Cn1cc(/C=C2\C(=O)Nc3cccnc32)c2ccccc21	4.52
CC[C@@H]1C(=O)N(C)c2cnc(Nc3ccc(C(=O)NC4CCN(C)CC4)cc3OC)nc2N1C1CCCC1	4.08
Nc1cc(N)c(N)cc1N [FAK Inhibitor 14]	4.19
C[S+]([O-])c1ccc(-c2nc(-c3ccc(F)cc3)c(-c3ccncc3)[nH]2)cc1 (centres undefined)	4.85
C[C@H]1[C@H](C)CC[C@]2(C(=O)O)CC[C@]3(C)C(=CC[C@@H]4[C@@]5(C)C[C@@H](O)[C@H](O)[C@@](C)(CO)[C@@H]5CC[C@]43C)[C@H]12 [Asiatic acid]	4.52
Cc1cc(Nc2cc(N3CCN(C)CC3)nc(/C=C/c3ccccc3)n2)n[nH]1 [ENMD-2076 L-(+)-Tartaric acid]	0.424
Cn1cc(-c2[nH]c3cc(NC(=O)[C@H](N)C4CCCCC4)cc4c3c2C=NNC4=O)cn1	1.09
NC(=O)c1cccc(-c2cc(Nc3ccc(OC(F)(F)F)cc3)ncn2)c1	4.09
COc1cc(-c2cc(-c3ccc(N4CCNCC4)cc3)cnc2C)cc(OC)c1OC	3.42

2 entries from above, as comma-separated lines:
SMILES,neurite formation score
Cn1cc(-c2[nH]c3cc(NC(=O)[C@H](N)C4CCCCC4)cc4c3c2C=NNC4=O)cn1,1.09
NC(=O)c1cccc(-c2cc(Nc3ccc(OC(F)(F)F)cc3)ncn2)c1,4.09
